Where a chain is given by its changes, count along the chain named. For part of these data: The comparison behind a weaker result is the experiment's own reference, which may not be listed here. For part of these data: Tags and fusion partners may be left off the protein sequences shown. For part of these data: For at least one entry, the source does not settle the construct or the ends of the probe. For part of these data: At least one verdict was read from the data and is not stated in words by the source.
What was measured:
Assay in all cases: EMSA
[1] = biological target: T1, Swi2N AT2-A G242A,R243A,P244A (Schizosaccharomyces pombe) (UniProt Q10668); details: 20 mM Tris-HCl pH 7.5, 100 mM NaCl, 5% glycerol, 1 mM DTT, room temperature 10 min, 1% agarose in TAE, recombinant protein, residues 1-391, protein details: His-SUMO removed by Ulp1, probe letters rebuilt from the primers and the genome
T1 sequence (looked up): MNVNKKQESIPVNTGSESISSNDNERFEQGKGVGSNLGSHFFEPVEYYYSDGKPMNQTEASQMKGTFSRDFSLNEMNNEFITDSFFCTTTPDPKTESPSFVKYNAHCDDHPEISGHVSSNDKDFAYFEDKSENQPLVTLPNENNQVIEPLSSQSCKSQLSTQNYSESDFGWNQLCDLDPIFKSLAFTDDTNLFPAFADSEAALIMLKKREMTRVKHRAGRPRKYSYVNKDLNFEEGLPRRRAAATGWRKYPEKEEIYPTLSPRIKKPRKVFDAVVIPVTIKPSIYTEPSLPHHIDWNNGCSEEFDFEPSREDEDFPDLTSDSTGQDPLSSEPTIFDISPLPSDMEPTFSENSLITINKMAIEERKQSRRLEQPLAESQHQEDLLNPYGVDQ

Swi2C + Swi5 = details: modest binding; 20 mM Tris-HCl pH 7.5, 100 mM NaCl, 5% glycerol, 1 mM DTT, room temperature 10 min; 1% agarose in TAE; recombinant protein; protein details: His-SUMO removed by Ulp1; probe letters rebuilt from the primers and the genome
[2] = biological target: T2, Swi2N (Schizosaccharomyces pombe) (UniProt Q10668); details: 20 mM Tris-HCl pH 7.5, 100 mM NaCl, 5% glycerol, 1 mM DTT, room temperature 10 min; 1% agarose in TAE; recombinant protein; residues 1-391; protein details: His-SUMO removed by Ulp1; probe letters rebuilt from the primers and the genome
T2 sequence (looked up): T1 sequence (looked up) with A242G, A243R, A244P

[3] = biological target: T3, Swi2N AT12-AA G219A,R220A,P221A,G242A,R243A,P244A (Schizosaccharomyces pombe) (UniProt Q10668); details: 20 mM Tris-HCl pH 7.5, 100 mM NaCl, 5% glycerol, 1 mM DTT, room temperature 10 min, 1% agarose in TAE, recombinant protein, residues 1-391, protein details: His-SUMO removed by Ulp1, probe letters rebuilt from the primers and the genome
T3 sequence (looked up): T1 sequence (looked up) with G219A, R220A, P221A

[4] = biological target: T4, Swi2N AT1-A G219A,R220A,P221A (Schizosaccharomyces pombe) (UniProt Q10668); details: 20 mM Tris-HCl pH 7.5, 100 mM NaCl, 5% glycerol, 1 mM DTT, room temperature 10 min, 1% agarose in TAE, recombinant protein, residues 1-391, protein details: His-SUMO removed by Ulp1, probe letters rebuilt from the primers and the genome
T4 sequence (looked up): T1 sequence (looked up) with G219A, R220A, P221A, A242G, A243R, A244P

Sequence | binding result ([1]; similar trend to SRE3) | binding result (Swi2C + Swi5) | binding result [2] | binding result ([3]; similar trend to SRE3) | binding result ([4]; similar trend to SRE3) | binding result ([1]; slightly reduced shift) | binding result ([3]; drastically reduced, no stable complex) | binding result ([4]; slightly reduced shift)
AGAATGCTCTATGGTTGAGGAAGTGGAACGTAAGATATTAAAGGAATAGGGATGTGAATGTAAAGAGTGGGTAGATGCATTTGGGATGAGGTTTAATATATGTTTATAAAGGAAAATGGCTAATGGATATGAAGTATTGGTGTAAGGAGTTCAAGATGTATGGGGAGAAAGAGGATGGTTGATGGAGTGGTTGAGCGAGGAAAGTGTTGAAGTATAGTGTGTATGGTAGGAATGAGTAATGAGATGTAGTGAAAGTATAATATTAGTGAGTATATTATGGTAGGGAGTGCGTAGCGTAGCGAAGCAAATATCTCGTTAGAGGGAAGGGGAAGGTAGAAGGGCGCACACAAAAAGGGAAAATTGGAGGGAGAATGAATGACACGAACAGCATAATTGGAAA (double strand) [mat1 400 bp] | binds more weakly | binds | binds | binds more weakly | binds more weakly | – | – | –
GCGAAGCATATTTCTTGCTAATCTTTTGTTTTATATTTAAAATGTTTTAAATATAGGCACAAAATAACGTGAAATCAACCACAAGGTAAATTTACTATAATATTTATTTTTATAATAAGAATCATCAGCAATTGGTAATAATTATTTTTGGTAAATTGAGTAATATATTAACGCTTTATAAATTCGTTTATTAATCCTGTTTAAAATCAAATCGCATTTAATTGCTTAAAATACAGATGCCAATAACTTCGTGGTATTCGGAAATATCGGTATCCAAAAAGGGATTTTTATTTTAATTCAACAATTAAAATTAATGTATGAAATAAATTTGATGAATATGTAAGTATTTAAACGATTTCGACGGATATGATCTACAATGCTGAACAGCATAATCACAAAC (double strand) [SRE2 400 bp] | binds more weakly | binds | binds | binds more weakly | binds more weakly | – | – | –
GGGTAAGAAGAACTTTTATTTATTTATTTGCCAACTACTGTTAGATATTTTTGAGCAAGTTATTTTATTTTAACTTAAAAATATGTTTCCAGTTTTCAAAAAAATTATATTAAAGCGCCTAGCGATTGATGTCAGTGAAATATTTGTAGTGAATGTGTTGAGAAAAACTGTACAAATGATCACGTTTAATAGGTAAAACAATTCTAATTTATTAATTTACTATATACTCAATATCAGGTTATAATTTGAACATTATAGTTGTTGCTAAATGATGATATCGTTATGTTGGCAAAACGATTGCTTTTTTTGTTTAAAACTATTCTAAACTGCTTTTAAAAACACAAAATGCGCATTTTTTCCCAAAAGACAGACTATCGGCCAAACAAACATATTTGGATAA (double strand) [SRE3 400 bp] | – | binds | binds | – | – | binds more weakly | binds more weakly | binds more weakly

Reference: article PMC10164574, “Fission yeast Swi2 designates cell-type specific donor and stimulates Rad51-driven strand exchange for mating-type switching”
